Laboratory results reported in doi:10.1101/2025.01.09.632080.
Like-named read-outs stand apart in the source and are kept apart here. Results are given in words; binding and its absence hold for the method and conditions named. Binding seen in cells or lysates may run through a third protein. Some entries that bind do so weakly or less than the wild type. For some of these results: Tags and fused reporters may be left off the sequences shown.

Amino acid sequences for entries named in this document (tags omitted). A change or cut given only in a name is not applied to a line headed by its entry.
UniProt O60826: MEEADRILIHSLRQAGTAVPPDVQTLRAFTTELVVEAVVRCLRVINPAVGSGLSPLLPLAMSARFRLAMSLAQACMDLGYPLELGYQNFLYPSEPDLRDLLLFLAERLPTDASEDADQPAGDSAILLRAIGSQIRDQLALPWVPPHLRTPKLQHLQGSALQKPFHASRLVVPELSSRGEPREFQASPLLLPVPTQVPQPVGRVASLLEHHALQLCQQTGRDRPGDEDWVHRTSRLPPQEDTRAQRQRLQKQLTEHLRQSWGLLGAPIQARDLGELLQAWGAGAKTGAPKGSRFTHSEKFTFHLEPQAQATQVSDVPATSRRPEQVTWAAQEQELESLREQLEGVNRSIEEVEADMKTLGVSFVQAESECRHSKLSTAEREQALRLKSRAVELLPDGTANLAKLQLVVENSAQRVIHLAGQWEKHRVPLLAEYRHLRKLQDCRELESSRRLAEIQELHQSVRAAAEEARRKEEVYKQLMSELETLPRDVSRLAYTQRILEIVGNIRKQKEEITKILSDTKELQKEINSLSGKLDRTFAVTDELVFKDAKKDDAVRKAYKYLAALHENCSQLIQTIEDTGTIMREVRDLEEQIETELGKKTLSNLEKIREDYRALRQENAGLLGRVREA
UniProt Q567U6: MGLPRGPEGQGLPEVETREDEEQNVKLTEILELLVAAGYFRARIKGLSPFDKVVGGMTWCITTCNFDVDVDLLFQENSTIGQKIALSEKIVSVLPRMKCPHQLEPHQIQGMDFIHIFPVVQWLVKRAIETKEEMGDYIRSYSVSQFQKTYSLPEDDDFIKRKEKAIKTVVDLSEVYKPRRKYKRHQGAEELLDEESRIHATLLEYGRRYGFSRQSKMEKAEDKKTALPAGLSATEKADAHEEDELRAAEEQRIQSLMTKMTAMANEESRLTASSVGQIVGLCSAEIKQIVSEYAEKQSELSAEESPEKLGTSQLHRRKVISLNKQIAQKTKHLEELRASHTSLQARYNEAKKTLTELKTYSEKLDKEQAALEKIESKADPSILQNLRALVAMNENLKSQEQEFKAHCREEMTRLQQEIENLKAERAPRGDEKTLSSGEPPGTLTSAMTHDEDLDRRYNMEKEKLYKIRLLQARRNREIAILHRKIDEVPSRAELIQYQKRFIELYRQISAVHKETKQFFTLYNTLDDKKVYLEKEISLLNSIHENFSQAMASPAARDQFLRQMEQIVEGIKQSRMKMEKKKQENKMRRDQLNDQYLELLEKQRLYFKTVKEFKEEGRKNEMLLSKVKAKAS
UniProt P19474: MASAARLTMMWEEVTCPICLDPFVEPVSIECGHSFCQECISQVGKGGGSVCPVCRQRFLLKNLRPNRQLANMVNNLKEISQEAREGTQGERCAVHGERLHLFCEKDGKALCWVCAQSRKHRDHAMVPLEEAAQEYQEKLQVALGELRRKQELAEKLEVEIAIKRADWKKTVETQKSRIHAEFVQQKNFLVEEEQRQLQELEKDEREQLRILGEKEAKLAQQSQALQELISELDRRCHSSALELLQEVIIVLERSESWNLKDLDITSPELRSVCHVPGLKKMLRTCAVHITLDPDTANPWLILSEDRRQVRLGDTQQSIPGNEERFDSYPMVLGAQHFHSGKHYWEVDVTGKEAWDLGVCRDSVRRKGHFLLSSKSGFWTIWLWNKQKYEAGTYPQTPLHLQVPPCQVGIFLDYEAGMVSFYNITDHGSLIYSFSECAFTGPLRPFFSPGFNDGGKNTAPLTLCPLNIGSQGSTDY

Legend:
Assay in all cases: co-IP
[1] = target: C-terminal Myc-tagged CCDC22 (CCDC22-Myc) (UniProt O60826)
[2] = target: T1, N-terminal Flag-tagged TRIM72 (Flag-TRIM72), full length (UniProt Q6ZMU5)
T1 sequence: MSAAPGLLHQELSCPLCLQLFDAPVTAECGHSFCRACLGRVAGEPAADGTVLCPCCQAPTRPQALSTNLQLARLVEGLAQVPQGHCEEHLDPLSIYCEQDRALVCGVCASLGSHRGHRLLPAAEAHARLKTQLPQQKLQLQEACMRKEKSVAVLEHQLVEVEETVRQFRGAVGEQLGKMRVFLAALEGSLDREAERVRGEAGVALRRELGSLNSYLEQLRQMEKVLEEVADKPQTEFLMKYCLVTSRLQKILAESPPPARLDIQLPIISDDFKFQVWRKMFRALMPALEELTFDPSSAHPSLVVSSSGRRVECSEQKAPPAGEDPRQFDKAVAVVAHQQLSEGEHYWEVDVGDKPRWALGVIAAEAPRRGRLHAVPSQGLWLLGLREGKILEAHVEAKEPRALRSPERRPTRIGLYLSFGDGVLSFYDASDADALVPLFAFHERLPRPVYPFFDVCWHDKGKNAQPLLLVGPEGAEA

CCDC93-Flag = CCDC93-Flag (UniProt Q567U6)
FLAG-tagged TRIM11 = target: T2, FLAG-tagged TRIM11 (UniProt Q96F44)
T2 sequence: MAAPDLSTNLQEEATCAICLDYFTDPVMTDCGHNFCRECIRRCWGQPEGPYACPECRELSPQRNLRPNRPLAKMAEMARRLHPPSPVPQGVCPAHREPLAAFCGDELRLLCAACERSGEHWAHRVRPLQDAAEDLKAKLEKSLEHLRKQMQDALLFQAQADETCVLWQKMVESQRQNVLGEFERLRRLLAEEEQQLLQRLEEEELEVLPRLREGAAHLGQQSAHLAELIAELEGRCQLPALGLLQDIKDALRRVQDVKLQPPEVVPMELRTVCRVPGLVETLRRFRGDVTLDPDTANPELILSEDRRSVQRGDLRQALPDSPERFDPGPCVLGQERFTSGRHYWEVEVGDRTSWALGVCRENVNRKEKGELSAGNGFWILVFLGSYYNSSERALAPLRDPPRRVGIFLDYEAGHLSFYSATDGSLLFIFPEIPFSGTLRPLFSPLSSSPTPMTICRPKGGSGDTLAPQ

FLAG-tagged TRIM21 = FLAG-tagged TRIM21 (UniProt P19474)
[3] = target: T1, N-terminal Flag-tagged TRIM72 (Flag-TRIM72), full length; remark: listed apart in the source

binding [1]	binding [2]	binding (CCDC93-Flag)	binding (FLAG-tagged TRIM11)	binding (FLAG-tagged TRIM21)	binding [3]	Substance
binds						CCDC93-Flag (from UniProt Q567U6 1-631)
	binds	binds	binds	binds	binds	C-terminal Myc-tagged CCDC22 (CCDC22-Myc) (from UniProt O60826 1-627)
					binds	CCDC22 D540K/E541R-Myc (from UniProt O60826 1-627)
